The list shows only some results of the screen, not a fair sample: it is rich in T/C values a quarter to a half above the control, in often repeated tests (any T/C) and in doses without a T/C. Other doses and runs of a compound stand elsewhere. T/C is the treated group as % of the vehicle group. Some entries give survivors of the animals treated and no T/C: the source files T/C as zero there, which appears to mark a toxic dose or a test without result, not a measured value. Some survivor counts are full or nearly so, which does not show that the dose was tolerated: the source hardly ever lists a survival T/C far under the control, and the zero likely stands for such cases as well. Survivors were counted at the toxicity check, usually on the fifth day, unless a day is given; later deaths do not show. Schedules are NCI's codes, read here as Q, the interval in days (D) or hours (H), X, the number of doses. Some doses were run more than once; the values are given in rising order. Counts like (3×) say how often a value occurs here. Some schedules carry Z or #; the key to these is not given. For survival time, this PubChem deposit counts one and a half times the control or more as active, and values a quarter to a half above the control carry no call in these data; other NCI protocols may use other cut-offs. Some T/C values carry the count of animals alive at the toxicity check (mostly the fifth day); where none is given, no animal had died by that day.
Test system: Lewis lung carcinoma i.m., BDF1 mice, T/C %
Assay: NCI In Vivo Anticancer Drug Screen. Data for tumor model Lewis Lung Carcinoma (intramuscular) in B6D2F1 (BDF1) mice
Method in brief: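 Antitumour activity is assessed in transplanted-tumour mice. Endpoint is survival or tumour size, normalised to vehicle-dosed controls (T/C).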

[1] = T/C endpoint: median survival time, dose: 8.0 mg/kg/injection, schedule: Q01DX011 (ip), vehicle: saline, higher T/C = longer survival
[2] = T/C endpoint: median survival time, dose: 16.0 mg/kg/injection, schedule: Q01DX011 (ip), vehicle: saline, higher T/C = longer survival

O=P1(NCCCl)OCCCN1CCCl (stereo not drawn)
survivor count (T/C endpoint: median survival time, dose: 65.0 mg/kg/injection, schedule: Q04DX Z (ip), vehicle: water, higher T/C = longer survival): 0 of 8 | survivor count (T/C endpoint: median survival time, dose: 108.0 mg/kg/injection, schedule: Q01DX011 (ip), vehicle: water, higher T/C = longer survival): 7 of 8 | T/C (T/C endpoint: median survival time, dose: 180.0 mg/kg/injection, schedule: Q01DX001 (ip), vehicle: water, higher T/C = longer survival): 146 % of control | survivor count (T/C endpoint: median survival time, dose: 180.0 mg/kg/injection, schedule: Q01DX011 (ip), vehicle: water, higher T/C = longer survival): 3 of 8 and 7 of 8 | survivor count (T/C endpoint: median survival time, dose: 180.0 mg/kg/injection, schedule: Q04DX Z (ip), vehicle: water, higher T/C = longer survival): 5 of 8 | survivor count (T/C endpoint: median survival time, dose: 500.0 mg/kg/injection, schedule: Q01DX001 (ip), vehicle: water, higher T/C = longer survival): 3 of 8 and 5 of 8 | survivor count (T/C endpoint: median survival time, dose: 500.0 mg/kg/injection, schedule: Q04DX Z (ip), vehicle: water, higher T/C = longer survival): 2 of 8 | survivor count (T/C endpoint: median survival time, dose: 500.0 mg/kg/injection, schedule: Q07DX Z (ip), vehicle: water, higher T/C = longer survival): 5 of 8 | survivor count (T/C endpoint: median survival time, dose: 833.0 mg/kg/injection, schedule: Q01DX001 (ip), vehicle: water, higher T/C = longer survival): 0 of 8

O=[As]O
survivor count (T/C endpoint: mean tumor weight, dose: 4.0 mg/kg/injection, schedule: Q01DX011 (ip), vehicle: saline, higher T/C = larger tumour): 2 of 8 | survivor count (T/C endpoint: median survival time, dose: 4.0 mg/kg/injection, schedule: Q01DX011 (ip), vehicle: saline, higher T/C = longer survival): 2 of 8 | survivor count [1]: 0 of 8 | survivor count [2]: 0 of 8 | survivor count (T/C endpoint: median survival time, dose: 32.0 mg/kg/injection, schedule: Q01DX011 (ip), vehicle: saline, higher T/C = longer survival): 0 of 8

CCCCCCCCCCCC(c1ccccc1)[N+](C)(C)C (stereo not drawn)
survivor count (T/C endpoint: mean tumor weight (est.), dose: 1.0 mg/kg/injection, schedule: Q01DX011 (ip), vehicle: saline, higher T/C = larger tumour): 5 of 8 | survivor count (T/C endpoint: median survival time, dose: 1.0 mg/kg/injection, schedule: Q01DX011 (ip), vehicle: saline, higher T/C = longer survival): 5 of 8 | survivor count [1]: 0 of 8 | survivor count [2]: 0 of 8

Cc1nc(N)c(C)c(C(=O)O)n1
T/C (T/C endpoint: median survival time, dose: 16.0 mg/kg/injection, schedule: Q01DX009 (ip), vehicle: water, higher T/C = longer survival): 130 % of control | T/C (T/C endpoint: median survival time, dose: 32.0 mg/kg/injection, schedule: Q01DX009 (ip), vehicle: water, higher T/C = longer survival): 129 % of control

O=[N+]([O-])c1cc(S(=O)(=O)OCC2CO2)ccc1Cl (stereo not drawn)
survivor count (T/C endpoint: median survival time, dose: 50.0 mg/kg/injection, schedule: Q01DX011 (ip), vehicle: saline with Tween-80, higher T/C = longer survival): 0 of 8

CNNCc1ccc(C(=O)NC(C)C)cc1
survivor count (T/C endpoint: mean tumor weight, dose: 300.0 mg/kg/injection, schedule: Q01DX011 (ip), vehicle: saline, higher T/C = larger tumour): 2 of 8 | survivor count (T/C endpoint: median survival time, dose: 80.0 mg/kg/injection, schedule: Q01DX011 (ip), vehicle: saline, higher T/C = longer survival): 10 of 10 | survivor count (T/C endpoint: median survival time, dose: 80.0 mg/kg/injection, schedule: Q01DX012 (ip), vehicle: saline, higher T/C = longer survival): 7 of 10 | survivor count (T/C endpoint: median survival time, dose: 160.0 mg/kg/injection, schedule: Q01DX011 (ip), vehicle: saline, higher T/C = longer survival): 8 of 10 | survivor count (T/C endpoint: median survival time, dose: 160.0 mg/kg/injection, schedule: Q01DX012 (ip), vehicle: saline, higher T/C = longer survival): 8 of 10 | survivor count (T/C endpoint: median survival time, dose: 300.0 mg/kg/injection, schedule: Q01DX011 (ip), vehicle: saline, higher T/C = longer survival): 2 of 8 | survivor count (T/C endpoint: median survival time, dose: 320.0 mg/kg/injection, schedule: Q01DX011 (ip), vehicle: saline, higher T/C = longer survival): 0 of 10 | survivor count (T/C endpoint: median survival time, dose: 320.0 mg/kg/injection, schedule: Q01DX012 (ip), vehicle: saline, higher T/C = longer survival): 7 of 10 | survivor count (T/C endpoint: median survival time, dose: 640.0 mg/kg/injection, schedule: Q01DX011 (ip), vehicle: saline, higher T/C = longer survival): 0 of 10 | survivor count (T/C endpoint: median survival time, dose: 640.0 mg/kg/injection, schedule: Q01DX012 (ip), vehicle: saline, higher T/C = longer survival): 0 of 10

NC(=S)N/N=C/c1ccc(O)cn1
T/C (T/C endpoint: median survival time, dose: 20.0 mg/kg/injection, schedule: Q03HX024 (ip), vehicle: other, higher T/C = longer survival): 127 % of control [7 of 8 alive] | survivor count (T/C endpoint: median survival time, dose: 40.0 mg/kg/injection, schedule: Q03HX024 (ip), vehicle: other, higher T/C = longer survival): 6 of 8 | T/C (T/C endpoint: median survival time, dose: 50.0 mg/kg/injection, schedule: Q01DX009 (ip), vehicle: other, higher T/C = longer survival): 144 % of control | T/C (T/C endpoint: median survival time, dose: 50.0 mg/kg/injection, schedule: Q01DX011 (ip), vehicle: other, higher T/C = longer survival): 139 % of control | T/C (T/C endpoint: median survival time, dose: 100.0 mg/kg/injection, schedule: Q01DX011 (ip), vehicle: other, higher T/C = longer survival): 138 % of control [7 of 8 alive] | survivor count (T/C endpoint: median survival time, dose: 200.0 mg/kg/injection, schedule: Q01DX009 (ip), vehicle: other, higher T/C = longer survival): 4 of 8 | survivor count (T/C endpoint: median survival time, dose: 200.0 mg/kg/injection, schedule: Q01DX011 (ip), vehicle: other, higher T/C = longer survival): 0 of 8 (2×) | survivor count (T/C endpoint: median survival time, dose: 400.0 mg/kg/injection, schedule: Q01DX011 (ip), vehicle: other, higher T/C = longer survival): 0 of 8 | T/C (T/C endpoint: median survival time, dose: 400.0 mg/kg/injection, schedule: Q04DX003 (ip), vehicle: other, higher T/C = longer survival): 131 % of control | survivor count (T/C endpoint: median survival time, dose: 800.0 mg/kg/injection, schedule: Q04DX003 (ip), vehicle: other, higher T/C = longer survival): 0 of 8 | survivor count (T/C endpoint: median survival time, dose: 1600.0 mg/kg/injection, schedule: Q04DX003 (ip), vehicle: other, higher T/C = longer survival): 0 of 8

O=C1NC(O)CCN1C1OC(CO)C(O)C1O (stereo not drawn)
survivor count (T/C endpoint: median survival time, dose: 100.0 mg/kg/injection, schedule: Q01DX011 (ip), vehicle: water, higher T/C = longer survival): 8 of 8 | survivor count (T/C endpoint: median survival time, dose: 200.0 mg/kg/injection, schedule: Q01DX011 (ip), vehicle: water, higher T/C = longer survival): 8 of 8 | survivor count (T/C endpoint: median survival time, dose: 800.0 mg/kg/injection, schedule: Q01DX011 (ip), vehicle: water, higher T/C = longer survival): 8 of 8

OCC1OC(n2cnc3c(Cl)ncnc32)C(O)C1O (stereo not drawn)
survivor count (T/C endpoint: mean tumor weight (est.), dose: 200.0 mg/kg/injection, schedule: Q01DX011 (ip), vehicle: saline, higher T/C = larger tumour): 5 of 8 | survivor count (T/C endpoint: mean tumor weight (est.), dose: 800.0 mg/kg/injection, schedule: Q01DX011 (ip), vehicle: saline, higher T/C = larger tumour): 5 of 8 | survivor count (T/C endpoint: mean tumor weight, dose: 50.0 mg/kg/injection, schedule: Q01DX011 (ip), vehicle: Klucel (hydroxypropylcellulose) (HPC), higher T/C = larger tumour): 5 of 8 | survivor count (T/C endpoint: mean tumor weight, dose: 100.0 mg/kg/injection, schedule: Q01DX011 (ip), vehicle: Klucel (hydroxypropylcellulose) (HPC), higher T/C = larger tumour): 5 of 8 | survivor count (T/C endpoint: mean tumor weight, dose: 400.0 mg/kg/injection, schedule: Q01DX011 (ip), vehicle: Klucel (hydroxypropylcellulose) (HPC), higher T/C = larger tumour): 5 of 8 | survivor count (T/C endpoint: mean tumor weight, dose: 800.0 mg/kg/injection, schedule: Q01DX011 (ip), vehicle: Klucel (hydroxypropylcellulose) (HPC), higher T/C = larger tumour): 5 of 8 | survivor count (T/C endpoint: median survival time, dose: 50.0 mg/kg/injection, schedule: Q01DX011 (ip), vehicle: saline, higher T/C = longer survival): 7 of 8 | survivor count (T/C endpoint: median survival time, dose: 50.0 mg/kg/injection, schedule: Q01DX012 (ip), vehicle: Klucel (hydroxypropylcellulose) (HPC), higher T/C = longer survival): 5 of 8 | survivor count (T/C endpoint: median survival time, dose: 100.0 mg/kg/injection, schedule: Q01DX012 (ip), vehicle: Klucel (hydroxypropylcellulose) (HPC), higher T/C = longer survival): 5 of 8 | survivor count (T/C endpoint: median survival time, dose: 200.0 mg/kg/injection, schedule: Q01DX011 (ip), vehicle: saline, higher T/C = longer survival): 5 of 8 | survivor count (T/C endpoint: median survival time, dose: 400.0 mg/kg/injection, schedule: Q01DX012 (ip), vehicle: Klucel (hydroxypropylcellulose) (HPC), higher T/C = longer survival): 5 of 8 | survivor count (T/C endpoint: median survival time, dose: 800.0 mg/kg/injection, schedule: Q01DX011 (ip), vehicle: saline, higher T/C = longer survival): 5 of 8 | survivor count (T/C endpoint: median survival time, dose: 800.0 mg/kg/injection, schedule: Q01DX012 (ip), vehicle: Klucel (hydroxypropylcellulose) (HPC), higher T/C = longer survival): 5 of 8

Source: PubChem BioAssay AID272 (DTP/NCI, 2004)
